Values of other authors, collected in patent US20130266659A1, “METHODS OF TREATING BLADDER CANCER” (priority 2010, published 2013).
Some entries share one result that the patent states for a list of compounds.

Test system: metastatic urothelial cancer
Conditions: second-line, previously treated with a platinum-based regimen

Structure (SMILES) | overall response rates
CC(=O)O[C@@]12CO[C@@H]1C[C@H](O)[C@@]1(C)C(=O)[C@H](O)C3=C(C)[C@@H](OC(=O)[C@H](O)[C@@H](NC(=O)OC(C)(C)C)c4ccccc4)C[C@@](O)([C@@H](OC(=O)c4ccccc4)[C@H]21)C3(C)C [docetaxel] | less than 20%
CC(=O)O[C@H]1C(=O)[C@@]2(C)[C@H]([C@H](OC(=O)c3ccccc3)[C@]3(O)C[C@H](OC(=O)[C@H](O)[C@@H](NC(=O)c4ccccc4)c4ccccc4)C(C)=C1C3(C)C)[C@]1(OC(C)=O)CO[C@@H]1C[C@@H]2O [paclitaxel] | less than 20%
